Results reported in patent US20150368339A1.
No constants are given. Whether binding was seen depends on the method and setting. Some binding calls cover weakened binding; strength is not graded here.

Sequences of proteins named here, by UniProt entry; tags and fusion partners are left off. A change or cut given only in a name is not applied to a line headed by its entry.
UniProt P08172: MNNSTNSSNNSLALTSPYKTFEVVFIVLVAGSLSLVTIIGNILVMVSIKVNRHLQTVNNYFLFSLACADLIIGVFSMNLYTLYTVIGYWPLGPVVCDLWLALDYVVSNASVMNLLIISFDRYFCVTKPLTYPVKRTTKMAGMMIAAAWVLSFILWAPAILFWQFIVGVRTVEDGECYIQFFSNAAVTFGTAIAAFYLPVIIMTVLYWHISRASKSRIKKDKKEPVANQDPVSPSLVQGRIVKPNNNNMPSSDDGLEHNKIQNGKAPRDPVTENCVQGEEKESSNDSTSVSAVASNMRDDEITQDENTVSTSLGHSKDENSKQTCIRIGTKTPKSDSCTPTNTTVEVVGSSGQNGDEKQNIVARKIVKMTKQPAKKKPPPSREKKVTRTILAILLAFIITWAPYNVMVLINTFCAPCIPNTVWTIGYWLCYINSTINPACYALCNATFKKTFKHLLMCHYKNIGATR

Assays:
[1] = target: human M2 muscarinic receptor (glycosylation sites removed, amino-terminal FLAG tag, carboxy-terminal 8xHis tag, residues 233-374 of intracellular loop 3 deleted) (human) (UniProt P08172); experiment: complex formation for the crystallization sample, purified by size exclusion
[2] = target: human M2 muscarinic receptor (glycosylation sites removed, amino-terminal FLAG tag, carboxy-terminal 8xHis tag, residues 233-374 of intracellular loop 3 deleted) (human) (UniProt P08172); experiment: radioligand (N-methylscopolamine) binding assay

B1: Nb_B4 (VHH)
VHH: QVQLQESGGGLVQAGGSLRLSCAASGRTFSNYAMSWFRQAPGKERGLVATIYRSGEGTYYLPSAKGRFTVSRDNAKNTAYLQMNSLKAEDTAVYYCAVMSRGTWSMWGQGTQVTVSS
binding [1]: binds | binding [2]: binds
